Results published in PubChem BioAssay AID504834 (National Center for Advancing Translational Sciences (NCATS), 2011).
The campaign covered roughly 320,000 compounds. About 22,000 (6.9%) were called active. The shares of active, inactive and inconclusive entries below differ from those in the screen. The call rests on the fitted dose curve; in most records, active means well fitted inhibition curve with a large enough effect; inconclusive means small, poorly fitted or top-dose-only effect, or another doubt; inactive means no such curve, though single readings can be large or run the other way. Potencies beside an inconclusive call are fits to weak or partial responses and may not hold up.

assay: Primary qHTS for delayed death inhibitors of the malarial parasite plastid, 96 hour incubation; conditions: P. falciparum luciferase reporter growth; series mostly up to 28.7 µM
Summary of the method: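 Readout is luminescence from an integrated firefly luciferase in P. falciparum. Red cells, 2% hematocrit and 0.05% parasitemia final, were cultured with compound through two parasite generations (96 hours) at 37 C, 5% CO2.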
Potency means the concentration at half of the fitted maximal effect.

| Compound | Potency |
| --- | --- |
| CC(C)c1ccc(Nc2nnc(SCC(=O)c3nnc(-c4ccccc4)o3)s2)cc1 | inconclusive: 20.8 µM [inhibitor, single point] |
| O=C(c1ccccc1Sc1ccccc1[N+](=O)[O-])N1CCCCC1 | inconclusive: 5.22 µM [inhibitor, single point] |
| O=C(O)CCNc1ccc2c(c1)OCCO2 | inconclusive: 14.7 µM [inhibitor, partial curve, poor fit] |
| COc1ccc(C)cc1NC(=O)c1cc(S(=O)(=O)N2CCOCC2)cn1C | inactive |
| c1cc(-n2nnc3cnccc32)ccn1 | inactive |
| Cc1cc(C)cc(N(C(=O)c2cccs2)C2C=CS(=O)(=O)C2)c1 (stereo not drawn) | inconclusive: 18.5 µM [inhibitor, single point] |
| CCCCCC(=O)Nc1cccc(C2=NOC3(C2)C[C@@H](C(N)=O)N(C(=O)Cc2ccc([N+](=O)[O-])cc2)C3)c1 (stereo partly drawn) | inconclusive: 5.22 µM [inhibitor, partial curve, poor fit] |
| O=C(CSc1nnc(NC(=O)c2ccccc2F)s1)NC1CC1 | inactive |
| Cc1cc(C)n(C(=O)/C(C#N)=C/N(C)C)n1 | inactive |
| CCN(CC)c1ccc(/C=C2\CCC(/C=N/NC(=O)c3ccc(=O)n(C)c3)=C2N2CCOCC2)cc1 | inactive |
| CCCCC(=O)Nc1ccc2c3c(cccc13)C(=O)N2CC | inconclusive: 16.5 µM [inhibitor, single point] |
| CC(C)(C)C(=O)N1CCc2cc(-c3csc(N)n3)ccc21 | inactive |
| CCCN(CCC)S(=O)(=O)c1cccc(-c2csc(C)n2)c1 | inconclusive: 18.5 µM [inhibitor, single point] |
| Cn1nnc(NC(=S)NC(=O)c2cc(Cl)ccc2Cl)n1 | active: 4.15 µM |
| Clc1ccc(/C=N/N2CCN(Cc3ccccc3)CC2)cc1 | inactive |
| CCOc1ccc(Oc2ccccc2NC(=O)CSCC(=O)Nc2cc(C)on2)cc1 | inconclusive: 18.5 µM [inhibitor, partial curve, poor fit] |
| CCOC(=O)C(C)Oc1c(C(=O)OC)sc2ncccc12 (stereo not drawn) | inconclusive: 2.62 µM [inhibitor, full curve, poor fit] |
| O=C(COC(=O)C1CCN(c2ccc(C(F)(F)F)cn2)CC1)Nc1cccc(F)c1 | inactive |
| CCOC(=O)N1CCN(c2nc(-c3ccccc3)c3cc(C)ccc3n2)CC1 | inconclusive: 4.15 µM [inhibitor, single point] |
| Cc1c(N=Nc2c(O)n(-c3ccc(Br)cc3)c(=O)[nH]c2=O)c(=O)n(-c2ccccc2)n1C | inactive |
| Cc1ccc(Cn2c(C)nc3c(c2=O)c2nc4ccccc4nc2n3Cc2ccco2)cc1 | inconclusive: 16.5 µM [inhibitor, single point] |
| Cn1c(C(=O)NC2CCCC2)cc2c(=O)n(C)c3ccccc3c21 | inconclusive: 16.5 µM [inhibitor, single point] |
| COc1c(-c2ccccc2)oc2c(ccc3occc32)c1=O | inactive |
| Cc1cccc(C)c1NC(=O)COc1ccccc1C(=O)Nc1ccc(Br)cn1 | inconclusive: 18.5 µM [inhibitor, single point] |
| CN1CCN(c2ccc(NC(=O)c3ccccc3Br)cc2)CC1 | inactive |

| Compound | Potency |
| --- | --- |
| Cc1ccc(CN2[C@@H](CC3CCCCC3)COCCS2(=O)=O)cc1 | inconclusive: 18.5 µM [inhibitor, single point] |
| O=C(O)CSC1CC(=O)N(c2ccc(Br)cc2)C1=O (stereo not drawn) | inactive |
| N#Cc1ccccc1Cn1c(=O)n(CCCC(=O)NCc2ccc3c(c2)OCO3)c(=O)c2ccccc21 | inconclusive: 18.5 µM [inhibitor, single point] |
| Cc1ccc(C(=O)Cn2c(C(=O)OCCO)cc3ccccc32)cc1 | inconclusive: 18.5 µM [inhibitor, single point] |
| COc1cccc(OCc2cc(C(=O)N(C)CCC3CCCCO3)no2)c1 (stereo not drawn) | inconclusive: 18.5 µM [inhibitor, partial curve, poor fit] |
| CCN(c1ccccc1)S(=O)(=O)c1cc2c(cc1C)NC(=O)CO2 | inconclusive: 4.15 µM [inhibitor, partial curve, poor fit] |
| COc1ccc2c(c1)c(C(=O)CNc1nc(C)cs1)c(C)n2C | active: 2.94 µM |
| c1ccc(COc2ccccc2CNc2nn[nH]n2)cc1 | inconclusive: 3.7 µM [inhibitor, single point] |
| COc1ccc(-c2cc(C(F)(F)F)nc(SCC(=O)Nc3cc(C)on3)n2)cc1OC | inconclusive: 9.28 µM [inhibitor, partial curve, poor fit] |
| CC(C)C[C@@H](CSc1ccc(Br)cc1)N1CCN(CCc2ccccc2)CCC1=O | inconclusive: 16.5 µM [inhibitor, single point] |
| Cc1ccc(NC(=O)N2CCCC2C(=O)NCC2CCCCC2)cc1 (stereo not drawn) | inactive |
| COc1ccc(N2CCN(C(=O)C(OC(C)=O)c3ccccc3)CC2)cc1 (stereo not drawn) | inactive |
| COc1ccc(NC(=O)CSc2ncc(-c3ccc(F)cc3)n2Cc2ccco2)cc1 | active: 11.7 µM |
| C=CCCCCCCCCC(=O)Nc1c[nH]c(=O)[nH]c1=O | inconclusive: 0.147 µM [inhibitor, full curve, poor fit] |
| CC(C)(C)c1nnc2sc(SCC(=O)N3CCc4ccccc43)nn2c1=O | inconclusive: 10.4 µM [inhibitor, single point] |
| Nc1nc(COC(=O)c2ccc3c(c2)OCCO3)nc(Nc2ccccc2)n1 | inactive |
| Cc1ccc(C)c(NC(=O)c2cc[n+](C)cc2)c1 | inactive |
| O=C(CCCN1C(=O)c2ccccc2C1=O)NCc1ccc(F)cc1 | inactive |
| COc1cccc(-c2nnc(NC(=O)C3CCCCC3)o2)c1 | inactive |
| O=C(OCCNc1nc(-c2ccccc2)nc2ccccc12)c1cccnc1 | inactive |
| CCCNC(=O)Cn1cnc2sc(C(=O)N3CCN(c4ccc(F)cc4)CC3)c(C)c2c1=O | inconclusive: 11.7 µM [inhibitor, single point] |
| Cc1ccc(C)c(C(=O)CC2(O)C(=O)Nc3ccccc32)c1 (stereo not drawn) | inconclusive: 2.94 µM [inhibitor, partial curve, poor fit] |
| O=C(c1cc(C2CC2)nn1-c1ccccc1)N1CCN(S(=O)(=O)c2ccccc2)CC1 | inconclusive: 13.1 µM [inhibitor, partial curve, poor fit] |
| O=C(N/N=C(\c1ccccc1)c1cccnc1)c1cc(O)ccc1O | inactive |
| COc1ccc(OC)c(/C=N/NC(=O)c2cnccn2)c1 | inactive |

A section of the results above, for reference:

| Compound | Potency |
| --- | --- |
| Cc1ccc(CN2[C@@H](CC3CCCCC3)COCCS2(=O)=O)cc1 | inconclusive: 18.5 µM [inhibitor, single point] |
| O=C(O)CSC1CC(=O)N(c2ccc(Br)cc2)C1=O (stereo not drawn) | inactive |
| N#Cc1ccccc1Cn1c(=O)n(CCCC(=O)NCc2ccc3c(c2)OCO3)c(=O)c2ccccc21 | inconclusive: 18.5 µM [inhibitor, single point] |
| Cc1ccc(C(=O)Cn2c(C(=O)OCCO)cc3ccccc32)cc1 | inconclusive: 18.5 µM [inhibitor, single point] |
| COc1cccc(OCc2cc(C(=O)N(C)CCC3CCCCO3)no2)c1 (stereo not drawn) | inconclusive: 18.5 µM [inhibitor, partial curve, poor fit] |
| CCN(c1ccccc1)S(=O)(=O)c1cc2c(cc1C)NC(=O)CO2 | inconclusive: 4.15 µM [inhibitor, partial curve, poor fit] |
| COc1ccc2c(c1)c(C(=O)CNc1nc(C)cs1)c(C)n2C | active: 2.94 µM |
| c1ccc(COc2ccccc2CNc2nn[nH]n2)cc1 | inconclusive: 3.7 µM [inhibitor, single point] |
| COc1ccc(-c2cc(C(F)(F)F)nc(SCC(=O)Nc3cc(C)on3)n2)cc1OC | inconclusive: 9.28 µM [inhibitor, partial curve, poor fit] |
| CC(C)C[C@@H](CSc1ccc(Br)cc1)N1CCN(CCc2ccccc2)CCC1=O | inconclusive: 16.5 µM [inhibitor, single point] |
| Cc1ccc(NC(=O)N2CCCC2C(=O)NCC2CCCCC2)cc1 (stereo not drawn) | inactive |
| COc1ccc(N2CCN(C(=O)C(OC(C)=O)c3ccccc3)CC2)cc1 (stereo not drawn) | inactive |
| COc1ccc(NC(=O)CSc2ncc(-c3ccc(F)cc3)n2Cc2ccco2)cc1 | active: 11.7 µM |
| C=CCCCCCCCCC(=O)Nc1c[nH]c(=O)[nH]c1=O | inconclusive: 0.147 µM [inhibitor, full curve, poor fit] |
| CC(C)(C)c1nnc2sc(SCC(=O)N3CCc4ccccc43)nn2c1=O | inconclusive: 10.4 µM [inhibitor, single point] |
| Nc1nc(COC(=O)c2ccc3c(c2)OCCO3)nc(Nc2ccccc2)n1 | inactive |
| Cc1ccc(C)c(NC(=O)c2cc[n+](C)cc2)c1 | inactive |
| O=C(CCCN1C(=O)c2ccccc2C1=O)NCc1ccc(F)cc1 | inactive |
| COc1cccc(-c2nnc(NC(=O)C3CCCCC3)o2)c1 | inactive |
| O=C(OCCNc1nc(-c2ccccc2)nc2ccccc12)c1cccnc1 | inactive |

(next part)

| Compound | Potency |
| --- | --- |
| COc1ccccc1N/N=C(\C#N)C(=N)N1CCOCC1 | inactive |
| OC1CCCN(Cc2ccc3ccc4cccc5ccc2c3c45)C1 (stereo not drawn) | inconclusive: 18.5 µM [inhibitor, single point] |
| COc1ccc(CNC(=O)CCc2nc(-c3ccccc3F)no2)c(OC)c1 | inconclusive: 11.7 µM [inhibitor, single point] |
| CCN(CC)C(c1ccc(F)cc1)c1nnnn1C1CCCCC1 (stereo not drawn) | inactive |
| Cc1ccc(CNC(=O)CCc2c(C)nn(-c3ccc(N4CCOCC4)nn3)c2C)cc1 | inconclusive: 11.7 µM [inhibitor, single point] |
| CC1=C(C(=O)OCc2ccccc2)C(c2ccc3ccccc3c2)NC(=O)N1CCCCCC(=O)O (stereo not drawn) | active: 10.4 µM |
| COc1ccc2[nH]c3c(c2c1)CCn1c-3nc2ccccc2c1=O | inconclusive: 18.5 µM [inhibitor, single point] |
| COc1cc(C(=O)OCC(=O)Nc2ccc(SC(F)F)cc2)cc(OC)c1OC | inactive |
| COc1ccc(-c2cn3cccnc3n2)cc1NC(=O)C1CC1 | active: 9.28 µM |
| Nn1c(SCc2nc3ccccc3[nH]2)nnc1C1CCCCC1 | inconclusive: 9.28 µM [inhibitor, single point] |
| COc1cc(NC(=O)c2noc(C)c2[N+](=O)[O-])c(OC)cc1Cl | inconclusive: 16.5 µM [inhibitor, single point] |
| Cc1cc(C(=O)CN2C(=O)NC3(CCCCC3)C2=O)c(C)n1C | inactive |
| CC(C)CN1CCN(Cc2cn(C)c3ccccc23)CC1CCO (stereo not drawn) | inconclusive: 0.928 µM [inhibitor, full curve, poor fit] |
| COC(=O)COc1cccc2c(=O)n(CC(=O)N3CCCc4ccccc43)ccc12 | inactive |
| CCOC(=O)c1ccc2c(c1)nc(SCC(=O)c1cc3ccccc3o1)n2CC | inconclusive: 18.5 µM [inhibitor, single point] |
| COc1ccc(NC(=O)NCCN2CCN(c3cc(OC)ccc3OC)CC2)cc1 | inactive |
| Cc1ccc(S(=O)(=O)CC(=O)N2CCN(c3ccc(F)cc3)CC2)cc1 | inconclusive: 10.4 µM [inhibitor, single point] |
| COCCOC1CCN(C(=O)c2cc(COc3ccc(F)cc3F)on2)CC1 | inconclusive: 16.5 µM [inhibitor, partial curve] |
| C#Cc1ccc([C@H]2C=C(C(=O)NC3CC3)O[C@@H](OCC)[C@@H]2CCCO)cc1 | inconclusive: 14.7 µM [inhibitor, partial curve, poor fit] |
| CCc1ccc2c(c1)C(c1ccc([N+](=O)[O-])cc1)=NNC(c1ccc(F)cc1)=N2 | inconclusive: 18.5 µM [inhibitor, single point] |
| NC(=O)c1ccc(SCC(=O)OCC(=O)NCc2ccco2)c([N+](=O)[O-])c1 | inactive |
| COc1ccc(-n2c(Cc3cccn3C)nnc2SCC(=O)Nc2nccs2)cc1 | inconclusive: 10.4 µM [inhibitor, single point] |
| O=C(CN1CCN(Cc2ccccc2)CC1)Nc1ccc([N+](=O)[O-])cc1C(=O)Nc1ccccc1F | inconclusive: 8.28 µM [inhibitor, partial curve, poor fit] |
